The list shows a part of the results.

For this assay, the system named is T1, CTL2-GFP (C. trachomatis L2/434/Bu, GFP-expressing).
T1 construct: L2/434/Bu, GFP-expressing
Also on record: species or system HeLa; Intracellular C. trachomatis growth in HeLa cells, bulk GFP fluorescence relative to DMSO. The following applies: bulk GFP, single well; 28.5 h, 10 µM; inhibitor.
For the compound `COc1cc(Nc2cc(-c3cccc(N)c3)nc3ccnn23)cc(OC)c1OC` [CBK037236], the “% of control remaining” value came to 138.102%.

As for `C=CCN1CC2(c3ccccc3)CN(CC=C)CC(c3ccccc3)(C1)C2=O` [CBK265987], the “% of control remaining” value is recorded as 127.197%.

As for `Cc1ccc2c(c1)C(NC(=O)C1CC1C)CC1(CCOCC1)O2` (centres unmarked) [CBK284880], the “% of control remaining” value was 119.298%.

Regarding `CCn1c(C)nn(-c2nc3c(Cl)cccc3s2)c1=O` [CBK026010], the “% of control remaining” value worked out at 125.522%.

`Nn1cnn2c(SCC(=O)Nc3ccc(Cl)cc3)nnc12` [CBK025688]: the “% of control remaining” value is 84.6268%.

Take `CC1CN(c2ccc(CNc3ncccc3C#N)cn2)CCO1` (centres unmarked) [CBK305957]: the “% of control remaining” value stood at 101.033%.

Regarding `O=c1[nH]c2ncc(-c3ccc(-c4ccccc4)cc3)nc2n1Cc1cccnc1` [CBK064282], the “% of control remaining” value is listed as 200.998%.

`CS(=O)(=O)Nc1cc2ccccc2c(-c2ccncc2)n1` [CBK085746]: the “% of control remaining” value came to 118.548%.

As to `O=C(O)CCCn1cc(NC(=O)Cc2ccccc2F)cn1` [CBK270119], the “% of control remaining” value came out at 94.6366%.

With `COc1cc(/C=N/n2cnnc2)ccc1OCc1cccc(C(=O)O)c1` [CBK264249], the “% of control remaining” value is reported as 101.526%.

For `O=[N+]([O-])c1ccc(N2CCN(S(=O)(=O)Cc3ccccc3)CC2)cc1N1CCN(Cc2ccccc2)CC1` [CBK264951], the “% of control remaining” value was 100.792%.

In the case of `COc1cccc(C(NC(=O)C2CCN(C(=O)c3ccccc3)CC2)c2ccccn2)c1` (centres unmarked) [CBK060036], the “% of control remaining” value is 114.699%.

As to `Cc1sc2nc(C(C)C)n(C3CCNCC3)c(=O)c2c1C` [CBK282407], the “% of control remaining” value was found to be 133.014%.

As for `CCNC(=O)Nc1ccc2ccc(-c3cccnc3)nc2n1` [CBK070652], the “% of control remaining” value was determined as 92.4864%.

For the compound `O=C(c1nccc2ccccc12)N1CCN(Cc2ccccc2)CC1` [CBK200176], the “% of control remaining” value was 128.772%.

On to `COCCNC(=O)c1ccc(-c2cc(C(C)C)ccc2OC)nc1N(C)C` [CBK106061], for which the “% of control remaining” value is 106.553%.

As to `CC1CCN(CC(O)c2ccc3c(c2)CCCN3C(=O)C2CC2)CC1` (centres unmarked) [CBK282488], the “% of control remaining” value is given as 136.946%.

On to `CC1(CNC(=O)c2ccc(N3CCCCC3)cc2)COC1` [CBK281746], for which the “% of control remaining” value amounted to 106.554%.

For the compound `COC(=O)c1cn([C@H]2CO[C@H]3[C@@H]2OC[C@H]3OC(=O)Nc2ccccc2)nn1` [CBK289492], the “% of control remaining” value stood at 118.545%.

With `Cc1noc(C)c1CC(=O)Nc1nc2c(cc1C#N)CCCC2` [CBK306429], the “% of control remaining” value came to 91.6921%.

Take `COc1cc(CNc2nc(-c3c(C)cccc3C)cn3ccnc23)cc(OC)c1OC` [CBK037415]: the “% of control remaining” value worked out at 165.71%.

Turning to `COc1ccc([C@@]23CC[C@@H](NS(=O)(=O)Cc4ccccc4)C[C@@H]2N(C)CC3)cc1OC` [CBK056665T], the “% of control remaining” value was 96.7553%.

As for `O=C1N[C@@H](Cc2ccc(F)cc2)C(=O)N2CCN(C(=O)c3cccc(F)c3)C[C@H]12` [CBK289600], the “% of control remaining” value was determined as 101.511%.

In the case of `O=C(NS(=O)(=O)c1ccccc1)c1ccccc1` [CBK288429], the “% of control remaining” value worked out at 87.4295%.

`O=C1CC(c2ccc3c(c2)OCO3)c2ccc3ccccc3c2N1` (centres unmarked) [CBK087469]: the “% of control remaining” value came to 100.976%.

As to `O=c1cc(O)c2cc([N+](=O)[O-])ccc2n1CCc1ccccc1` [CBK291165], the “% of control remaining” value came out at 140.225%.

Consider `CCCCN1CCC(CNc2cc(C(F)(F)F)c3scc(C(=O)NC4CCC4)c3n2)CC1` [CBK034026C], for which the “% of control remaining” value is listed as 99.9775%.

`COc1ccc2[nH]cc(CCNC(=O)CC(C)O)c2c1` (centres unmarked) [CBK116201]: the “% of control remaining” value turned out to be 102.659%.

Regarding `COc1cccc(CC(=O)Nc2ncccc2O)c1` [CBK305047], the “% of control remaining” value was determined as 93.8277%.

For the compound `C[C@@H](Cn1nc2c(cc1=O)CCCC2)NC(=O)c1cccc(F)c1` [CBK284561], the “% of control remaining” value stood at 157.109%.

Take `CN1CC(=O)N2CCOC(C2)c2cccc(n2)NC(=O)C/C=C/CC2(CCN(Cc3ncc[nH]3)CC2)C1=O` (centres unmarked) [CBK292196]: the “% of control remaining” value is 145.638%.

With `CN1CCC(OCCCn2ccnc2-c2nccn2C)CC1` [CBK307683], the “% of control remaining” value amounted to 115.245%.

Take `O=C(CCN1C(=O)/C(=C\C=C\c2ccccc2)SC1=S)Nc1cc(Cl)ccc1O` [CBK264792]: the “% of control remaining” value was found to be 118.112%.

Turning to `Cn1nnnc1SCC(=O)Nc1ccc(Cl)c(Cl)c1` [CBK058218], the “% of control remaining” value was 106.616%.

Take `COc1cc(CNc2nnn[nH]2)cc(Cl)c1OC` [CBK288087]: the “% of control remaining” value was found to be 131.134%.

Turning to `CCOCCn1c(=O)c2c(nc3oc(C(C)(C)C)cn32)n(C)c1=O` [CBK307567], the “% of control remaining” value worked out at 123.98%.

For `Cc1nc(CCNc2ccc(-c3nc(C)c(C)c(=O)[nH]3)cn2)cs1` [CBK305497], the “% of control remaining” value is recorded as 93.0834%.

For the compound `N#C/C(=C\c1ccc(OCC(=O)c2ccccc2)cc1)c1nc(-c2cccs2)cs1` [CBK266765], the “% of control remaining” value turned out to be 146.789%.

On to `COc1ccccc1-c1nnc(SCc2cccc(C(=O)O)c2)[nH]1` [CBK269952], for which the “% of control remaining” value was 141.798%.

On to `CCc1c(C)sc(NC(=O)CSc2nnnn2C)c1C(=O)OC` [CBK270312], for which the “% of control remaining” value turned out to be 142.337%.

Consider `COC(=O)c1ccccc1S(=O)(=O)Nc1nnn[nH]1` [CBK021321], for which the “% of control remaining” value stood at 152.157%.

With `COc1ccc(NC(=O)CCSCCC(=O)O)cc1S(=O)(=O)N1CCCCC1` [CBK296655], the “% of control remaining” value is 152.801%.

Regarding `Cc1nc(C)n(C(C)CNC(=O)Cc2coc3cc(C)c(C)cc23)n1` (centres unmarked) [CBK282577], the “% of control remaining” value is 115.355%.

In the case of `Cc1cc(NS(=O)(=O)c2ccc(NC(=S)NC3CCCCC3)cc2)no1` [CBK268157], the “% of control remaining” value turned out to be 60.4801%.

`OC1CCC(Nc2cncc(-c3ccc(F)cc3F)n2)CC1` (centres unmarked) [CBK065835]: the “% of control remaining” value is on record as 98.1055%.

With `CCNC(=O)N1CCc2c([nH]c3ccc(OC)cc23)C12CCN(CCOc1ccccc1)C2` (centres unmarked) [CBK061690], the “% of control remaining” value is given as 119.131%.

For the compound `COc1cncc(C(NC(=O)Cc2cn3ccsc3n2)[C@H]2C[C@H](O)C2)c1` (some centres unmarked) [CBK306642], the “% of control remaining” value is reported as 100.37%.

As to `CC1CCCN(c2nc3nc[nH]c(=O)c3s2)C1` (centres unmarked) [CBK288120], the “% of control remaining” value was found to be 148.779%.

Take `CNS(=O)(=O)c1cc(C(=O)NC2CCCc3ccccc32)n(C)c1` (centres unmarked) [CBK305048]: the “% of control remaining” value is 105.717%.

Take `c1ccc(CN2CCN(c3ccc(Nc4cc(-c5ccncc5)ncn4)cc3)CC2)cc1` [CBK037727]: the “% of control remaining” value is 184.432%.

These data come from article PMC12040169 (PLOS Biology, 2025).
